Measurements as given in patent US9630939B2, “Derivative of homoserine lactone, and preparation method and use thereof” (priority 2013, dated 2017).
Some of these results come from one statement about several compounds together. At least one compound was matched to its structure with a doubt left.

Tested on: C. violaceum CV026
Assay: Preliminary screening of bacterial quorum sensing agonistic / inhibitory activity on LB plate (purple stain / white circle)
Assay type: cell-based
Experimental: 1.1 Preparation work: different compounds to be tested (Compounds 1-29 prepared in Example 1-29 and intermediates 1-3) were weighted and then were dissolved in 200 μl DMSO (dimethyl sulfoxide) to prepare a solution at a concentration of 0.065M. 5.0 mg inducer, N-hexanoyl homoserine lactone (C6-HSL, purchased from Sigma Company), was weighted and was dissolved in 200 μl DMSO (at a concentration of 0.125M), and the compounds and the inducer were stored at 4[…] for further use. C. violaceum CV026 (donated by Professor McLean J C from Texas State University) in LB culture medium (LB culture medium consisting of 1% (percentage by mass) tryptone, 0.5% (percentage by mass) yeast extract, 1% (percentage by mass) NaCl and water) was cultured under shaking in a shaker at 30 °C, 200 rpm to get the culture medium for further use.
1.2 Method for preliminary screening of compounds having agonistic activity: 400 μl C. violaceum CV026 (at a bacterial concentration of 1×10^8/ml) was added to 5 ml melted semi-solid LB culture medium, and was mixed well; the mixed culture medium was poured into a solid LB plate; when the mixed culture medium was solidified on the plate, lattice was made thereon; 1 μl of the dissolved compounds to be tested (Compounds 1-29 in Examples 1-29, at a concentration of 0.065M) was spotted on the plate; when the compounds on the plate was dried in air, the plate was put in a 30° C. oven upside down and was cultured for a period of 16-18 h. If the compound to be tested has an agonistic effect on C. violaceum CV026 on the LB plate, purple stain will be induced on the LB plate. The agonistic activity of a compound is determined depending on whether purple stain is induced for C. violaceum CV026 on LB plate as well as the purple depth.
1.3 Method for preliminary screening of compounds having inhibitory activity: the inducer C6—HSL was diluted gradiently to 1000 times by means of 2-fold dilution; 15 μl diluted inducer and 400 μl C. violaceum CV026 in exponential phase (at a bacterial concentration of 1×10^8/ml) were mixed well and then were added to a 5 ml melted semi-solid LB culture medium; the mixture of inducer, C. violaceum, and semi-solid LB was poured onto a solid LB plate; when the mixture was solidified on the plate, lattice was made thereon; 1 μl of the dissolved compounds to be tested (Compounds 1-29 prepared in Example 1-29 and intermediates 1-3, at a concentration of 0.065M) was spotted on the plate; when the compounds on the plate were dried in air, the plate was put in a 30° C. oven upside down and was cultured for a period of 16-18 h. […] The inhibitory activity of a compound is preliminary determined depending on the size of the white circle appeared after C. violaceum CV026 was inhibited on LB plate.

Structure (SMILES) | inhibitory or agonizing effect on bacterial quorum sensing (in words) | regulatory effect on bacterial quorum sensing (in words)
CCC(=O)Nc1ccc(S(=O)(=O)N[C@H]2CCOC2=O)cc1 [Compound 1, (S)-N-(4-(N-(2-oxotetrahydrofuran-3-yl)sulfamoyl)phenyl) propanamide] | inhibitory effect | regulatory effect
CCCC(=O)Nc1ccc(S(=O)(=O)N[C@H]2CCOC2=O)cc1 [Compound 2, (S)-N-(4-(N-(2-oxotetrahydrofuran-3-yl)sulfamoyl)phenyl)butyrylamide] | inhibitory effect | regulatory effect
CCCCC(=O)Nc1ccc(S(=O)(=O)N[C@H]2CCOC2=O)cc1 [Compound 3, (S)-N-(4-(N-(2-oxotetrahydrofuran-3-yl)sulfamoyl)phenyl)pentanamide] | inhibitory effect | regulatory effect
CCCCCC(=O)Nc1ccc(S(=O)(=O)N[C@H]2CCOC2=O)cc1 [Compound 4, (S)-N-(4-(N-(2-oxotetrahydrofuran-3-yl)sulfamoyl)phenyl)hexanamide] | inhibitory effect | regulatory effect
CCCCCCC(=O)Nc1ccc(S(=O)(=O)N[C@H]2CCOC2=O)cc1 [Compound 5, (S)-N-(4-(N-(2-oxotetrahydrofuran-3-yl)sulfamoyl)phenyl)heptamide] | inhibitory effect | regulatory effect
CCCCCCCC(=O)Nc1ccc(S(=O)(=O)N[C@H]2CCOC2=O)cc1 [Compound 6, (S)-N-(4-(N-(2-oxotetrahydrofuran-3-yl)sulfamoyl)phenyl)octanamide] | inhibitory effect | regulatory effect
O=C(Nc1ccc(S(=O)(=O)N[C@H]2CCOC2=O)cc1)c1ccccc1 [Compound 9, (S)-N-(4-(N-(2-oxotetrahydrofuran-3-yl)sulfamoyl)phenyl)benzamide] | inhibitory effect | regulatory effect
O=C(Nc1ccc(S(=O)(=O)N[C@H]2CCOC2=O)cc1)c1ccc(Br)cc1 [Compound 12, (S)-4-bromo-N-(4-(N-(2-oxotetrahydrofuran-3-yl)sulfamoyl)phenyl)benzamide] | – | regulatory effect
O=C(Nc1ccc(S(=O)(=O)N[C@H]2CCOC2=O)cc1)c1ccc(Cl)cc1 [Compound 14, (S)-4-chloro-N-(4-(N-(2-oxotetrahydrofuran-3-yl)sulfamoyl)phenyl)benzamide] | inhibitory effect | regulatory effect
O=C(Nc1ccc(S(=O)(=O)N[C@H]2CCOC2=O)cc1)c1ccc(CCl)cc1 [Compound 15, (S)-4-(chloromethyl)-N-(4-(N-(2-oxotetrahydrofuran-3-yl)sulfamoyl)phenyl)benzamide] | – | regulatory effect
CC(C)(C)c1ccc(C(=O)Nc2ccc(S(=O)(=O)N[C@H]3CCOC3=O)cc2)cc1 [Compound 16, (S)-4-(tert-butyl)-N-(4-(N-(2-oxotetrahydrofuran-3-yl)sulfamoyl)phenyl)benzamide] | inhibitory effect | regulatory effect
O=C(Nc1ccc(S(=O)(=O)N[C@H]2CCOC2=O)cc1)c1ccc(F)cc1 [Compound 17, (S)-4-fluoro-N-(4-(N-(2-oxotetrahydrofuran-3-yl)sulfamoyl)phenyl)benzamide] | inhibitory effect | regulatory effect
Cc1cccc(C(=O)Nc2ccc(S(=O)(=O)N[C@H]3CCOC3=O)cc2)c1 [Compound 20, (S)-3-methyl-N-(4-(N-(2-oxotetrahydrofuran-3-yl)sulfamoyl)phenyl)benzamide] | inhibitory effect | regulatory effect
O=C(Nc1ccc(S(=O)(=O)N[C@H]2CCOC2=O)cc1)c1cccc(Cl)c1 [Compound 22, (S)-3-chloro-N-(4-(N-(2-oxotetrahydrofuran-3-yl)sulfamoyl)phenyl)benzamide] | inhibitory effect | regulatory effect
O=C(Nc1ccc(S(=O)(=O)N[C@H]2CCOC2=O)cc1)c1cccc(F)c1 [Compound 23, (S)-3-fluoro-N-(4-(N-(2-oxotetrahydrofuran-3-yl)sulfamoyl)phenyl)benzamide] | inhibitory effect | regulatory effect
O=C(Nc1ccc(S(=O)(=O)N[C@H]2CCOC2=O)cc1)c1ccccc1F [Compound 24, (S)-2-fluoro-N-(4-(N-(2-oxotetrahydrofuran-3-yl)sulfamoyl)phenyl)benzamide] | inhibitory effect | regulatory effect
O=C(Nc1ccc(S(=O)(=O)N[C@H]2CCOC2=O)cc1)c1ccccc1C(F)(F)F [Compound 27, (S)-2-trifluoromethyl-N-(4-(N-(2-oxotetrahydrofuran-3-yl)sulfamoyl)phenyl)benzamide] | inhibitory effect | regulatory effect
O=C(Nc1ccc(S(=O)(=O)N[C@H]2CCOC2=O)cc1)c1ccccc1Cl [Compound 28, (S)-2-chloro-N-(4-(N-(2-oxotetrahydrofuran-3-yl)sulfamoyl)phenyl)benzamide] | inhibitory effect | regulatory effect
